Measurements reported in the supplement of paper PMC9015667.
Structures can show the parent of a compound that is named as a salt. This is one part of the list. Repeats are few or missing, and single values can be far off.

Assays:
Assay in all cases: reduction in cell viability relative to untreated/vehicle; higher = more growth inhibition
Conditions in all cases: 200 nM; 72 h
M229P = system: M229P (parental melanoma line)
M229R = system: M229R (matched melanoma line resistant to BRAF inhibitors)
M238P = system: M238P (parental melanoma line)
M238R = system: M238R (matched melanoma line resistant to BRAF inhibitors)
M249P = system: M249P (parental melanoma line)
M249R = system: M249R (matched melanoma line resistant to BRAF inhibitors)
UACC62P = system: UACC62P (parental melanoma line)
UACC62R = system: UACC62R (matched melanoma line resistant to BRAF inhibitors)

| SMILES | reduction in cell viability (M229P) [%] | reduction in cell viability (M229R) [%] | reduction in cell viability (M238P) [%] | reduction in cell viability (M238R) [%] | reduction in cell viability (M249P) [%] | reduction in cell viability (M249R) [%] | reduction in cell viability (UACC62P) [%] | reduction in cell viability (UACC62R) [%] |
| --- | --- | --- | --- | --- | --- | --- | --- | --- |
| COc1cccc2nc(-c3cccs3)nc(NN3C(=O)C=C(C)C3=O)c12 | 23.3 | 24.8 | 30.1 | < 0 | 4.44 | 10.1 | 11.7 | < 0 |
| Cc1ccccc1N1C(=O)c2cc(S(N)(=O)=O)c(Cl)cc2NC1C (centres undefined) [Metolazone] | < 0 | < 0 | < 0 | < 0 | 0.57 | < 0 | < 0 | < 0 |
| OC(Cn1cncn1)(Cn1cncn1)c1ccc(F)cc1F [Fluconazole] | < 0 | < 0 | < 0 | < 0 | < 0 | < 0 | < 0 | < 0 |
| CN1CCC(=C2c3ccccc3CCc3sccc32)CC1 [Pizotifen] | < 0 | < 0 | < 0 | < 0 | < 0 | 8.38 | < 0 | < 0 |
| CC(C)(C)C#Cc1cc(N(C(=O)[C@H]2CC[C@H](C)CC2)[C@H]2CC[C@H](O)CC2)c(C(=O)O)s1 [Lomibuvir] | < 0 | < 0 | < 0 | < 0 | < 0 | < 0 | < 0 | < 0 |
| COc1cccc(N(C)C(=S)Oc2ccc3c(c2)CCCC3)n1 [Liranaftate] | < 0 | < 0 | < 0 | < 0 | < 0 | < 0 | < 0 | < 0 |
| O=C(O)[C@H](CC(=O)N1C[C@H]2CCCC[C@H]2C1)Cc1ccccc1 [Mitiglinide calcium hydrate] | < 0 | < 0 | < 0 | < 0 | < 0 | < 0 | < 0 | < 0 |
| O=c1[nH]c(=O)n([C@H]2C[C@H](O)[C@@H](CO)O2)cc1I [Idoxuridine] | < 0 | < 0 | < 0 | < 0 | 7.68 | < 0 | < 0 | < 0 |
| CC(=O)O[C@@H]1[C@@H](OC(C)=O)[C@@H](O)[C@H](Oc2c(-c3ccc(O)cc3)oc3cc(O)cc(O)c3c2=O)O[C@H]1C | < 0 | < 0 | < 0 | < 0 | < 0 | < 0 | < 0 | < 0 |
| O=C(NCc1ccncc1)C12CC3CC(C1)CC(c1ccc(Cl)cc1)(C3)C2 | < 0 | < 0 | < 0 | < 0 | < 0 | < 0 | < 0 | < 0 |
| O=C(O)C(=O)Nc1cccc(-c2nnn[nH]2)c1 [Acitazanolast] | < 0 | < 0 | < 0 | < 0 | < 0 | < 0 | 4.55 | < 0 |
| CNC(=O)c1cccc(-c2ccc3c(N4CCOC[C@@H]4C)nc(N4CCOC[C@@H]4C)nc3n2)c1 | < 0 | 38.9 | 14 | 12.3 | 1.47 | 35.6 | 3.38 | 5.77 |
| NNc1nncc2ccccc12 [Hydralazine hydrochloride] | < 0 | < 0 | < 0 | < 0 | < 0 | < 0 | < 0 | < 0 |
| Cn1c(=O)c2c(ncn2C)n(C)c1=O [Caffeine, citrated] | < 0 | < 0 | < 0 | < 0 | < 0 | < 0 | 3.83 | < 0 |
| CS(=O)(=O)N1CCN(Cc2cc3nc(-c4cccc5[nH]ncc45)nc(N4CCOCC4)c3s2)CC1 | 5.53 | 16.3 | 35.7 | 36.9 | 18 | 4.87 | 26.6 | 9.13 |
| CCCCCCCc1ccc(CCc2cccc(O)c2C(=O)O)cc1 | < 0 | < 0 | < 0 | < 0 | < 0 | < 0 | < 0 | < 0 |
| O=C(Nc1cccc(Nc2ncc(Br)c(NCCc3cnc[nH]3)n2)c1)N1CCCC1 | < 0 | < 0 | 3.52 | < 0 | < 0 | 13.7 | 10.1 | < 0 |
| CCC(=O)N1CCN(c2ccc(-n3c(=O)ccc4cnc5ccc(-c6cnc7ccccc7c6)cc5c43)cc2C(F)(F)F)CC1 [Torin-1] | 32.7 | 33.1 | 35.5 | 31.4 | 20.6 | 47.5 | 34 | 34.4 |
| CC(C)C(=O)Nc1ccc([N+](=O)[O-])c(C(F)(F)F)c1 [Flutamide] | < 0 | < 0 | < 0 | < 0 | < 0 | 19.5 | < 0 | < 0 |
| Clc1ccc(C(Cn2ccnc2)OCc2ccsc2Cl)c(Cl)c1 (centres undefined) [Tioconazole] | < 0 | < 0 | < 0 | < 0 | < 0 | < 0 | < 0 | < 0 |
| OCc1ccccc1O[C@@H]1O[C@H](CO)[C@@H](O)[C@H](O)[C@H]1O [Salicin] | < 0 | < 0 | < 0 | < 0 | < 0 | < 0 | < 0 | < 0 |
| O=C(O)C1=CO[C@@H](O[C@@H]2O[C@H](CO)[C@@H](O)[C@H](O)[C@H]2O)[C@@H]2C(CO)=CC[C@H]12 [Geniposidic acid] | < 0 | < 0 | < 0 | < 0 | < 0 | < 0 | 2.09 | < 0 |

An excerpt from above with just reduction in cell viability (M249P) [%], reduction in cell viability (M238P) [%] and reduction in cell viability (UACC62R) [%]:
SMILES,reduction in cell viability (M249P) [%],reduction in cell viability (M238P) [%],reduction in cell viability (UACC62R) [%]
OCc1ccccc1O[C@@H]1O[C@H](CO)[C@@H](O)[C@H](O)[C@H]1O [Salicin],< 0,< 0,< 0
O=C(O)C1=CO[C@@H](O[C@@H]2O[C@H](CO)[C@@H](O)[C@H](O)[C@H]2O)[C@@H]2C(CO)=CC[C@H]12 [Geniposidic acid],< 0,< 0,< 0

Further results:

| SMILES | reduction in cell viability (M229P) [%] | reduction in cell viability (M229R) [%] | reduction in cell viability (M238P) [%] | reduction in cell viability (M238R) [%] | reduction in cell viability (M249P) [%] | reduction in cell viability (M249R) [%] | reduction in cell viability (UACC62P) [%] | reduction in cell viability (UACC62R) [%] |
| --- | --- | --- | --- | --- | --- | --- | --- | --- |
| O=C(NCc1ccccc1)c1csc(Nc2ccncn2)n1 [Thiazovivin] | < 0 | < 0 | < 0 | < 0 | < 0 | < 0 | < 0 | < 0 |
| Cc1cccc(-c2nn3c(c2-c2ccnc4ccc(C(N)=O)cc24)CCC3)n1 | < 0 | < 0 | < 0 | < 0 | < 0 | < 0 | < 0 | < 0 |
| CC[N+](CC)(CC)CCOc1cccc(OCC[N+](CC)(CC)CC)c1OCC[N+](CC)(CC)CC [Gallamine triethiodide] | 0.23 | < 0 | 15.5 | 17.5 | 7.67 | 7.51 | 26.6 | 13.2 |
| CC(C)CNc1ccnc(NCc2csc(-c3ccccc3)n2)n1 | < 0 | < 0 | < 0 | < 0 | < 0 | < 0 | < 0 | < 0 |
| O=C(Nc1cccc(C(F)(F)F)c1)Nc1cc(S(=O)(=O)NC2CC2)ccc1-c1ccsc1 | < 0 | < 0 | < 0 | < 0 | < 0 | < 0 | < 0 | < 0 |
| CNC(=O)c1c(-c2ccc(F)cc2)oc2cc(N(CCO)S(C)(=O)=O)c(C3CC3)cc12 [Nesbuvir] | < 0 | < 0 | < 0 | < 0 | < 0 | < 0 | < 0 | < 0 |
| CC(=O)Oc1cc2c(s1)CCN(C(C(=O)C1CC1)c1ccccc1F)C2 (centres undefined) [Prasugrel hydrochloride] | < 0 | < 0 | < 0 | < 0 | < 0 | < 0 | < 0 | < 0 |
| CC(=O)N[C@H]1[C@H]([C@H](O)[C@H](O)CO)OC(C(=O)O)=C[C@@H]1NC(=N)N [Zanamivir] | < 0 | 32.2 | 24.5 | 34 | < 0 | 4.46 | 31.2 | 46.3 |
| CC/C=C\CC1C(=O)CCC1CC(=O)OC (centres undefined) [methyl jasmonate] | < 0 | < 0 | < 0 | < 0 | < 0 | < 0 | < 0 | < 0 |
| CC(C)(OCc1nn(Cc2ccccc2)c2ccccc12)C(=O)O [Bindarit] | < 0 | < 0 | < 0 | < 0 | < 0 | < 0 | < 0 | < 0 |
| CN(C[C@@H]1COCCO1)S(=O)(=O)Nc1ccc2ccc3ncc(-c4cnn(C)c4)cc3c(=O)c2c1 | < 0 | < 0 | < 0 | < 0 | < 0 | < 0 | < 0 | < 0 |
| CC(C)c1nn(-c2c(Cl)cccc2Cl)c2nc(Cc3ccc(OCCO)cc3)[nH]c(=O)c12 | 48.9 | 56.6 | 82 | 55.7 | 89.3 | 89.5 | 82.5 | 78.1 |
| CCNC(=O)c1noc(-c2cc(C(C)C)c(O)cc2O)c1-c1ccc(CN2CCOCC2)cc1 | 49.9 | 57.2 | 50.2 | 48.6 | 25.3 | 28.2 | 64.3 | 66.2 |
| CCOC(=O)[C@H](CCc1ccccc1)N[C@@H](C)C(=O)N1[C@H](C(=O)O)C[C@@H]2CCC[C@@H]21 [Ramipril] | < 0 | < 0 | < 0 | < 0 | < 0 | 0.64 | 2.29 | < 0 |
| O=c1oc2c(O)c(O)cc3c(=O)oc4c(O)c(O)cc1c4c23 [Ellagic acid] | < 0 | < 0 | < 0 | < 0 | < 0 | < 0 | < 0 | < 0 |
| CCC[C@H](NC(=O)/C(C#N)=C/c1cccc(Br)n1)c1ccccc1 [Degrasyn] | < 0 | < 0 | < 0 | < 0 | < 0 | 0.51 | 11.3 | < 0 |
| O=C(O)CSCC(=O)NC1CCSC1=O (centres undefined) [Erdosteine] | < 0 | < 0 | < 0 | < 0 | < 0 | < 0 | < 0 | < 0 |
| CC(C)C[C@@H](C(=O)N[C@H](C(=O)OC1CCCC1)c1ccccc1)[C@H](O)C(=O)NO [Tosedostat] | < 0 | < 0 | < 0 | < 0 | < 0 | < 0 | < 0 | 8.71 |
| COc1ccccc1OCC(O)COC(N)=O (centres undefined) [Methocarbamol] | < 0 | < 0 | < 0 | < 0 | < 0 | < 0 | < 0 | < 0 |
| Cc1c(CCOc2ccc(C(=O)O)cc2)c2cc(Cl)ccc2n1C(c1ccccc1)c1ccccc1 | < 0 | < 0 | < 0 | < 0 | < 0 | < 0 | < 0 | < 0 |
| CC[C@H](NC(=O)[C@H](C)NC)C(=O)N1C[C@@H](O)C[C@H]1Cc1c(-c2[nH]c3cc(F)ccc3c2C[C@@H]2C[C@H](O)CN2C(=O)[C@H](CC)NC(=O)[C@H](C)NC)[nH]c2cc(F)ccc12 [Birinapant] | < 0 | 6.87 | < 0 | 12.7 | < 0 | < 0 | < 0 | 27 |
